PubChem BioAssay AID504406 (Broad Institute, 2011)
The whole screen tested about 320,000 compounds, of which about 190 (0.059%) were called active. These results got no clear call from the source, so the numbers are uncertain. Rule as the data show it: active = inhibition above about 10% (passing the limit was not always enough); inconclusive = no clear call, values can overlap the other calls. Some salts and complexes are drawn in separate pieces, as the source files them; their charges need not balance.

Sequences of proteins named here, by UniProt entry; tags and fusion partners are left off.
UniProt P9WIQ1, whole entry: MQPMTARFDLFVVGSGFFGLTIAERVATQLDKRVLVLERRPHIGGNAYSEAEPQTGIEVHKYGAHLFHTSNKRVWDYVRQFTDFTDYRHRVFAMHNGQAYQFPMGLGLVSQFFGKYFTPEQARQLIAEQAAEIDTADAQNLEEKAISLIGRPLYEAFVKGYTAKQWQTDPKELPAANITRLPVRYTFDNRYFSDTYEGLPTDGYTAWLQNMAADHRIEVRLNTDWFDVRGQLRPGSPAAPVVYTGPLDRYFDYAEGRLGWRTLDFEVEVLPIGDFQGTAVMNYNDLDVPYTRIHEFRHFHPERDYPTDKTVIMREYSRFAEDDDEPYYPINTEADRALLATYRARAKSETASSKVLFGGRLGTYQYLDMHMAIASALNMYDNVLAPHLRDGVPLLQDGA

The compounds below were run against UDP-galactopyranose mutase (Mycobacterium tuberculosis (strain ATCC 25618 / H37Rv)) (UniProt P9WIQ1) (assay: blockers of Mtb UDP-galactopyranose mutase – biochemical, fluorescence polarization, single point, primary screen (AID 504406)). Conditions: purified UGM, fluorescence polarization probe displacement; at 10 µM; active compounds read high.

How did the inhibition turn out when `COc1ccc2c(c1O)-c1c(O)c(OC)cc3c1[C@H](C2)[N+](C)(C)CC3.O=[N+]([O-])c1cc([N+](=O)[O-])c([O-])c([N+](=O)[O-])c1[O-]` was run?
The inhibition was inconclusive: 10.9%.
